Experimental data published in patent US20200264197A1.
Results are given in words; binding and its absence hold for the method and conditions named. Some entries that bind do so weakly or less than the wild type.

The chains behind the UniProt entries cited, without tags or fusion partners. Residues count along the entry.
UniProt P05067, residues 672-713: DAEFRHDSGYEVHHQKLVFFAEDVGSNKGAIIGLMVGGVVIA

Columns and labels:
[1] = target: Aβ aggregates (amyloid plaques) in brain slices of 5×FAD mice (human) (UniProt P05067); assay: immunohistochemistry on brain slices of 12 month old 5×FAD mice
[2] = target: Aβ aggregates (amyloid plaques) in brain slices of 5×FAD mice (human) (UniProt P05067); assay: immunohistochemistry on 5×FAD mouse brain slices

| binding [1] | binding [2] | Binder |
| --- | --- | --- |
| binds | binds | monoclonal antibody K119 (antibody, mouse IgG2a, kappa, V domains shown) VH: EVKLVESGGGLVQPGGSLRLSCATSGFTFTDYYMSWVRQPPGKALEWLGFIRNKANGYTTEYSASVKGRFTISRDNSQSILYLQMNTLRTEDSATYYCTRDIPTIMDYWGQGTSVTVSS VL: DIVMSQSPSSLAVSAGEKATMSCKSSQSLFNSRTRKNYVAWLQQKPGQSPKLLISWASTRESGVPDRFTGSGSGTDFALTITNVQAEDLAVYYCKQSYNLRAFGGGTKLEITR |
| – | binds | monoclonal antibody K11 (antibody, mouse IgG1, kappa, V domains shown) VH: QVQLKESGPGLVAPSQSLSITCTVSGFSLTSYGVHWVRQPPGKGLEWLGALWASGNTDYSSTLMSRLSISKDNSKSQVFLKMNSLQTDDTAMYYCARDRGILTGGYFDVWGAGTTVTVSS VL: DIVMSQSPTSLAVSAGEKVTMSCKSSQSLLNSRNRKNYLAWYQQKPGQSPKLLIYWASTRDSGVPDRFTGSGSGTDFTLTISSVQAEDLAVYYCKQSYNLRTFGGGTKLEIKR |
